# Measurements taken from the supplement of paper PMC12067093, “Discovery and optimisation of a covalent ligand for TRIM25 and its application to targeted protein ubiquitination” (Chemical Science, 2025).
# Protein sequences, listed by entry. Tags and fused reporters are not part of them. Lines headed by an entry give the natural chain unless they say otherwise; changes in a name come on top.
# UniProt Q6VN20, whole entry, looked up: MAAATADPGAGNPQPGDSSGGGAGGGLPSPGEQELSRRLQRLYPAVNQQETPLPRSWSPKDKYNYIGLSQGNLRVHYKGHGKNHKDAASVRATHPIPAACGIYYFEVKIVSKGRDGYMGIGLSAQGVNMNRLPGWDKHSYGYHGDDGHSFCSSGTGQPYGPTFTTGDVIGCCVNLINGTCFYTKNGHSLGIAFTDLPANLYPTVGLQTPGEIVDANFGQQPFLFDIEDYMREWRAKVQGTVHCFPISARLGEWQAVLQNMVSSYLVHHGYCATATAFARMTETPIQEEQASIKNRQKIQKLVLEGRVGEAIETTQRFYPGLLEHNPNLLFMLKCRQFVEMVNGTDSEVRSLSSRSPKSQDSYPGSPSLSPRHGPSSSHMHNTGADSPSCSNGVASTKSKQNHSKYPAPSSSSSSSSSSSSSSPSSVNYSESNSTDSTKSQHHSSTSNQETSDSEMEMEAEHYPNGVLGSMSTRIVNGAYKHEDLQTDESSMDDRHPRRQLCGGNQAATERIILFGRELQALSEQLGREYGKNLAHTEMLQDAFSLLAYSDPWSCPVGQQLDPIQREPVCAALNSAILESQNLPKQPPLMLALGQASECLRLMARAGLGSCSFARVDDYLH
# UniProt Q15291, whole entry, looked up: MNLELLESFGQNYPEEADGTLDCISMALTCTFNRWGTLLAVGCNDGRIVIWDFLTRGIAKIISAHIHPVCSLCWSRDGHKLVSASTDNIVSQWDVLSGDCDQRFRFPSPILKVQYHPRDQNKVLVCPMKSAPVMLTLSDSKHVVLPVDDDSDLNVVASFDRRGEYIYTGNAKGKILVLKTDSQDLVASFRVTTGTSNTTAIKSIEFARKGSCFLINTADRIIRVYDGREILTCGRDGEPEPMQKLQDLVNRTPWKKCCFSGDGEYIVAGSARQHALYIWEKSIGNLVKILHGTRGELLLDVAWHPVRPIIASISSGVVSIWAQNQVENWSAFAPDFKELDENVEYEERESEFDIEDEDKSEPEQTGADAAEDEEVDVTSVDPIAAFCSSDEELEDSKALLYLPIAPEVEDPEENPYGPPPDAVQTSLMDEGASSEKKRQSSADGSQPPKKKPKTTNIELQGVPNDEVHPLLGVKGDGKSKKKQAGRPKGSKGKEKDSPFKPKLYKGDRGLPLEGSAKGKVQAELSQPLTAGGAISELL
# UniProt Q8WWW0: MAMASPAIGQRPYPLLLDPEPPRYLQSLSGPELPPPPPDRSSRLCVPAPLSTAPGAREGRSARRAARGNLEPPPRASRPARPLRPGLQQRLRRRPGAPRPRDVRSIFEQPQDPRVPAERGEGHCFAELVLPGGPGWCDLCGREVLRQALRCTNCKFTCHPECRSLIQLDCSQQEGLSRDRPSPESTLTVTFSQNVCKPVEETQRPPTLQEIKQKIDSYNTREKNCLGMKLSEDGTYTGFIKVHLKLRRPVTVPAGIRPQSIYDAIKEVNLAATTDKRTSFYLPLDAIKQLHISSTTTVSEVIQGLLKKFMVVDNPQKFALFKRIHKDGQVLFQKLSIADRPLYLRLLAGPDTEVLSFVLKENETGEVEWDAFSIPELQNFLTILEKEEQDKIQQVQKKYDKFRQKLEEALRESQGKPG
# UniProt Q96T37: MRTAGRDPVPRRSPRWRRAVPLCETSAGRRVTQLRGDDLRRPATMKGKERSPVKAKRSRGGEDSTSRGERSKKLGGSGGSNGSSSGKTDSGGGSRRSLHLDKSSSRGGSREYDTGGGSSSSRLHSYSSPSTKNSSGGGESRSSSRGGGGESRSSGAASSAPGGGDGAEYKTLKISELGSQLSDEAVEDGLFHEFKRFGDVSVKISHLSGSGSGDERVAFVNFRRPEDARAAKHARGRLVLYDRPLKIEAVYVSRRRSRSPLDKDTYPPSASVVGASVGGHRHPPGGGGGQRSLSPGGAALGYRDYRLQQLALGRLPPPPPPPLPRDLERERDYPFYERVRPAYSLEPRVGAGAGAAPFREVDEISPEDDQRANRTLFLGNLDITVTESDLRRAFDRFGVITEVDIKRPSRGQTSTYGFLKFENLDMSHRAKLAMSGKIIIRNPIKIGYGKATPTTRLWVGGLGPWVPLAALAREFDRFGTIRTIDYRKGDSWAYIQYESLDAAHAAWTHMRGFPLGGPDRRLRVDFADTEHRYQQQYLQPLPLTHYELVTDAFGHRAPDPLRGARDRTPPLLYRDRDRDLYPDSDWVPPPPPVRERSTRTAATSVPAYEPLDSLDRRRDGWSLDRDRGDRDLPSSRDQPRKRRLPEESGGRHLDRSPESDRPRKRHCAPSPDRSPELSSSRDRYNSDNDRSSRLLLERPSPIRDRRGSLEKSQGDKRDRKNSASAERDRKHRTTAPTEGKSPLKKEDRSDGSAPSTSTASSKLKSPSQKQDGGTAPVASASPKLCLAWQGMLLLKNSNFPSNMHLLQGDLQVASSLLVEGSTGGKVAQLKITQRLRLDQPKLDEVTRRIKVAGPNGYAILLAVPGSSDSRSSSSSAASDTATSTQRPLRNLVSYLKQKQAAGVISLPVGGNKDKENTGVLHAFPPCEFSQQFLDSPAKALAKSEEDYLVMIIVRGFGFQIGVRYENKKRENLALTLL
# UniProt O95980: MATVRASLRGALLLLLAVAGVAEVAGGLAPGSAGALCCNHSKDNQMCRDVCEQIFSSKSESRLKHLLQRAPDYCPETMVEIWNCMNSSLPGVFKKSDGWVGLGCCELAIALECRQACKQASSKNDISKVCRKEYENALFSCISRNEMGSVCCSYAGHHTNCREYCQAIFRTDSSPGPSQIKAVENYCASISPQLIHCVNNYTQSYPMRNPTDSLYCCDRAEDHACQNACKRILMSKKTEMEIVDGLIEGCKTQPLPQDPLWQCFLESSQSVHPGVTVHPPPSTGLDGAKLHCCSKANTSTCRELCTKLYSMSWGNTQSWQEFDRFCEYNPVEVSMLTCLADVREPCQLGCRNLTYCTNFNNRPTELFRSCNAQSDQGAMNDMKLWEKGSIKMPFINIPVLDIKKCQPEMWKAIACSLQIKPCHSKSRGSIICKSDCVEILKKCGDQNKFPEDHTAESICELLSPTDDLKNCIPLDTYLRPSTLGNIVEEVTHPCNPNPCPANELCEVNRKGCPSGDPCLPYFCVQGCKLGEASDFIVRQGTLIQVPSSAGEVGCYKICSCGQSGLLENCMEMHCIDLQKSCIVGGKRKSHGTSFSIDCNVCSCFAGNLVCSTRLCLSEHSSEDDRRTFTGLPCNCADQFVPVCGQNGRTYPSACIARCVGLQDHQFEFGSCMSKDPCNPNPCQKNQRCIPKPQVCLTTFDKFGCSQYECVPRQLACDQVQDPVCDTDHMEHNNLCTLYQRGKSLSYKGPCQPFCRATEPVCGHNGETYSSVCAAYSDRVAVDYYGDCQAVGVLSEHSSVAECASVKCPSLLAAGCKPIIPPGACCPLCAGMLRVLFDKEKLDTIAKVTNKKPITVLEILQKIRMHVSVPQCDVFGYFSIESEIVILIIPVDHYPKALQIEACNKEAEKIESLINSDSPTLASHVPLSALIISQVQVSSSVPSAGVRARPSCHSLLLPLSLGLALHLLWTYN
# UniProt Q14644: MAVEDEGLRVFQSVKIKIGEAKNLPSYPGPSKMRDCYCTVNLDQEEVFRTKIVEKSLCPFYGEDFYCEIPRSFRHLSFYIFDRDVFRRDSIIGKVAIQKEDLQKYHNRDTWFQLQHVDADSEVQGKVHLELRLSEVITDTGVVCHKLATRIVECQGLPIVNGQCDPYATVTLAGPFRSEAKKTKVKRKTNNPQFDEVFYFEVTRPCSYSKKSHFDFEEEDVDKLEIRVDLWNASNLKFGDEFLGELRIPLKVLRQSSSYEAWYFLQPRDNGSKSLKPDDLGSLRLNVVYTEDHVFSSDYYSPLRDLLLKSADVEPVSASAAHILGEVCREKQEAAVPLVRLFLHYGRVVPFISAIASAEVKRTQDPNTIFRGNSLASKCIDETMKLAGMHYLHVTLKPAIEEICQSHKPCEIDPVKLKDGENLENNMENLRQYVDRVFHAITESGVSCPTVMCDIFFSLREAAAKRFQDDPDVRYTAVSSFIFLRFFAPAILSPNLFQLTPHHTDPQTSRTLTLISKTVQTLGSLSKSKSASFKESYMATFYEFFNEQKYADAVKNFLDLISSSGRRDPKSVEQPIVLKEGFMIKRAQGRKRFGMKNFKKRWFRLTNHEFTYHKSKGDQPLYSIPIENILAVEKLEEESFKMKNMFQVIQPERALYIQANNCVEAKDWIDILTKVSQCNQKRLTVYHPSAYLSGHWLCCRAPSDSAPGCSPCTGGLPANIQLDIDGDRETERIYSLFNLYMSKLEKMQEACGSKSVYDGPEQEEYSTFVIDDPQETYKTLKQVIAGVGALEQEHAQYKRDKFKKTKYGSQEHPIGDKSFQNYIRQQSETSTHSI
# UniProt Q9NW64: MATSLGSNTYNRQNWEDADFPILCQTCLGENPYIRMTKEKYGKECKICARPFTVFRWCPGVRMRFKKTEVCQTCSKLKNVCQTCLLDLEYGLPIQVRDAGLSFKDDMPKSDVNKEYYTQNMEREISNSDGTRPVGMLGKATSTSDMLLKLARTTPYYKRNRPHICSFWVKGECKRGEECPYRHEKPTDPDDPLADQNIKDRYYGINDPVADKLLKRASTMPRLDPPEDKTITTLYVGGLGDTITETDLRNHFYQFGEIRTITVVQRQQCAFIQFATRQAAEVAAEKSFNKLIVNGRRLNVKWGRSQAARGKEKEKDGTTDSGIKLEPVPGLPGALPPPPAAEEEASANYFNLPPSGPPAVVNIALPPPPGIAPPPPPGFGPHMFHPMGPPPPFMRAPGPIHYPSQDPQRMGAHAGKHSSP
# UniProt Q9P258, whole entry, looked up: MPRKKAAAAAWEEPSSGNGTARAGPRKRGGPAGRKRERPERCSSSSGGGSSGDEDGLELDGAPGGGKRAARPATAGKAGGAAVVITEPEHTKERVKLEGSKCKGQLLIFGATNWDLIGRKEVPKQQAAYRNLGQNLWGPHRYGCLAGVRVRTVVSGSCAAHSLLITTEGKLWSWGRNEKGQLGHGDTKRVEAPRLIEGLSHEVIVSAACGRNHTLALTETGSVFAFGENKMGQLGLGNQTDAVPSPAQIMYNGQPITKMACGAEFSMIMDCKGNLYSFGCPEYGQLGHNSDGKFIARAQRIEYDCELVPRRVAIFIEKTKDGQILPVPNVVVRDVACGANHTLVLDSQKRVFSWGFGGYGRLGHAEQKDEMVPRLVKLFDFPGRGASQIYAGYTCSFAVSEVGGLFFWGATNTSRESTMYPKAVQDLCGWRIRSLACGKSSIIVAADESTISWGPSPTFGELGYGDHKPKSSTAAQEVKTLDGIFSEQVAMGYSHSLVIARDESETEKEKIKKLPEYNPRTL
# UniProt P06400: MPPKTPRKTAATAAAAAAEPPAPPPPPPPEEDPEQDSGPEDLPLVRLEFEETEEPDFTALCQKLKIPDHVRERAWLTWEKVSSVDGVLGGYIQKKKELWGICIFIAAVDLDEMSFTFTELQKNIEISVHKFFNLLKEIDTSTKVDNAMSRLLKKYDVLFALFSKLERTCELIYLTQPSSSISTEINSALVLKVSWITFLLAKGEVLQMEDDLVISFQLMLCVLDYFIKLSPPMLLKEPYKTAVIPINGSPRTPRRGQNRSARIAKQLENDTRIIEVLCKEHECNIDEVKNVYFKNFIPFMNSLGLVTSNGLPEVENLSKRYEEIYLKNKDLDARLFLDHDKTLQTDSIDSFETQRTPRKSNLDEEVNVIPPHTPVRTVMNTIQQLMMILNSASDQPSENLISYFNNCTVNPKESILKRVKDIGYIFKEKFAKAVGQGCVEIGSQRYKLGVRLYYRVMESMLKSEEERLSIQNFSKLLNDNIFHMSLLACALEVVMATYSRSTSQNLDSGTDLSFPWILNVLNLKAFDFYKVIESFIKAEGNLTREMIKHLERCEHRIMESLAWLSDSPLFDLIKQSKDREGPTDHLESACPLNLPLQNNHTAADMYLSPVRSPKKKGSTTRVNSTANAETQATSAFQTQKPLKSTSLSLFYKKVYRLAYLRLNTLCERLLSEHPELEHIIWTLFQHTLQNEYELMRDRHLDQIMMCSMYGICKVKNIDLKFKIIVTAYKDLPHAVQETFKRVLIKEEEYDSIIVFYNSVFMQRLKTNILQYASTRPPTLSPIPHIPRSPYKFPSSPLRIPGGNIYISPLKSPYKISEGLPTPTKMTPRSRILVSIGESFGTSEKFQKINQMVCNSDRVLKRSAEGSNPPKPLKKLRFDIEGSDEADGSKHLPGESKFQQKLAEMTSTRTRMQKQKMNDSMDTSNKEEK
# This is one part of the list.
# Compound: Cc1cc(ccc1-c1ccccc1)C(=O)N1CCCN(CC1)C(=O)CCl [compound 10]
# Assay: probe-labelled cysteine peptide fold change vs DMSO (competition) (log2 fold change); higher = less target engagement (more negative = stronger competition)
# Details: THP-1, incubation time: 4 h
# 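Also: competitive profiling in live THP-1 cells: cysteine peptides tagged with an iodoacetamide desthiobiotin (IA-DTB) probe, intensity after compound treatment relative to DMSO-treated cells.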
Target,probe-labelled cysteine peptide fold change (10 µM),probe-labelled cysteine peptide fold change (50 µM)
RBM28_Q9NW13_71_EITTFEGCK (UniProt Q9NW13),-0.0471,-0.0789
RECQL4_O94761_1088_TFQAFHSVAFPSCGPCLEQQDEER (UniProt O94761),-0.0505,-0.422
RBM47_A0AV96_71_GCEVFVGK,0.081,0.0796
RBM5_P52756_766_CQGITAPIEAQVR (UniProt P52756),-0.314,-0.787
RANBP10_Q6VN20_610_AGLGSCSFAR (UniProt Q6VN20),0.149,0.0734
RBBP5_Q15291_100_LVSASTDNIVSQWDVLSGDCDQR (UniProt Q15291),0.121,0.0651
RASSF5_Q8WWW0_225_NCLGMK (UniProt Q8WWW0),-0.275,-0.844
RBM15_Q96T37_926_ENTGVLHAFPPCEFSQQFLDSPAK (UniProt Q96T37),0.0231,-0.0391
RECK_O95980_902_ALQIEACNK (UniProt O95980),-0.445,0.0576
RBM27_Q9P2N5_776_LGHAGGNQSDASHLLNQSGGAGEDCQIFSTPGHPK (UniProt Q9P2N5),0.0152,-0.172
RASA3_Q14644_328_SADVEPVSASAAHILGEVCR (UniProt Q14644),-0.0262,-0.241
RBM22_Q9NW64_179_RGEECPYR (UniProt Q9NW64),0.137,0.000136
RCC2_Q9P258_305_IEYDCELVPR (UniProt Q9P258),0.0188,0.116
RANBP2_P49792_1749_CIACQCPSK (UniProt P49792),0.0505,0.0953
RB1_P06400_706_HLDQIMMCSMYGICK (UniProt P06400),0.352,0.544

# Full records from above. Values in the order: probe-labelled cysteine peptide fold change (10 µM)	probe-labelled cysteine peptide fold change (50 µM)
# RCC2_Q9P258_305_IEYDCELVPR (UniProt Q9P258) reads 0.0188	0.116
# RBM22_Q9NW64_179_RGEECPYR (UniProt Q9NW64) reads 0.137	0.000136
